Reference: PubChem BioAssay AID336 (DTP/NCI, 2004)
The list is a part of this screen's results and no random one: it covers a few groups of compounds. Other doses and runs of a compound may be missing. T/C is the treated group as % of the vehicle group. Where survival is the endpoint, the PubChem record calls one and a half times the control and up active, and a quarter to a half above the control has no call in these data; cut-offs in other NCI protocols can differ. Schedule codes are those of the source, read here as Q, the interval in days (D) or hours (H), X, the number of doses. Some T/C values are marked as having no survivor count here; that says nothing about deaths at the dose.

Test system: BDF1 mice, P388/VCR leukemia ip, median survival T/C
Test: NCI In Vivo Anticancer Drug Screen. Data for tumor model P388 Leukemia resistant to Vincristine; NSC 67574 (intraperitoneal) in B6D2F1 (BDF1) mice
Settings: T/C endpoint: median survival time, higher T/C = longer survival
Protocol: The antitumor activity of compounds was measured in mice bearing transplantable tumors. Survival or tumor size were measured and the results are expressed as the measurement made in the treated group (T) divided by the measurement made in the vehicle treated control group (C). The tumor model used in this assay is P388 Leukemia resistant to Vincristine; NSC 67574 (intraperitoneal) in B6D2F1 (BDF1) mice

C[C@@H](O)[C@H]1/C=C/C=C\C(=O)O[C@@H]2C[C@H]3O[C@@H]4[C@@H]5OC5(C)CCC4(COC(=O)[C@H]4O[C@]4(C)[C@@H](O)CO1)[C@]2(C)[C@]31CO1 (stereo partly drawn)
T/C (dose: 1.94 mg/kg/injection, schedule: Q04DX003 (sc), vehicle: other): 105 % of control [survivor count not shown] | T/C (dose: 3.24 mg/kg/injection, schedule: Q04DX003 (sc), vehicle: other): 106 % of control [survivor count not shown] | T/C (dose: 5.4 mg/kg/injection, schedule: Q04DX003 (sc), vehicle: other): 105 % of control [survivor count not shown]

CC(=O)OC[C@]12C[C@H](OC(=O)CC(C)C)C(C)=C[C@H]1OC1[C@H](O)[C@@H](OC(C)=O)[C@@]2(C)[C@@]12CO2
T/C (dose: 1.08 mg/kg/injection, schedule: Q04DX003 (ip), vehicle: saline + alcohol): 100 % of control [survivor count not shown] | T/C (dose: 1.8 mg/kg/injection, schedule: Q04DX003 (ip), vehicle: saline + alcohol): 100 % of control [survivor count not shown] | T/C (dose: 3.0 mg/kg/injection, schedule: Q04DX003 (ip), vehicle: saline + alcohol): 100 % of control [survivor count not shown] | T/C (dose: 5.0 mg/kg/injection, schedule: Q04DX003 (ip), vehicle: saline + alcohol): 97 % of control [survivor count not shown] | T/C (dose: 648.0 micrograms/kg/injection, schedule: Q04DX003 (sc), vehicle: saline + alcohol): 106 % of control [survivor count not shown] | T/C (dose: 1080.0 micrograms/kg/injection, schedule: Q04DX003 (sc), vehicle: saline + alcohol): 104 % of control [survivor count not shown]

CC(=O)OCC12CCC(C)=CC1OC1C(O)C(OC(C)=O)C2(C)C12CO2 (stereo not drawn)
T/C (dose: 1.3 mg/kg/injection, schedule: Q04DX003 (sc), vehicle: saline + alcohol): 106 % of control [survivor count not shown] | T/C (dose: 2.16 mg/kg/injection, schedule: Q04DX003 (sc), vehicle: saline + alcohol): 108 % of control [survivor count not shown] | T/C (dose: 4.32 mg/kg/injection, schedule: Q04DX003 (ip), vehicle: saline + alcohol): 100 % of control [survivor count not shown] | T/C (dose: 7.2 mg/kg/injection, schedule: Q04DX003 (ip), vehicle: saline + alcohol): 100 % of control [survivor count not shown]
